Taken from: PubChem BioAssay AID743454 (Peter MacCallum Cancer Centre, 2014)
In all, the deposit lists about 18,000 reagents; shown is an unselected part. 450 of them (2.5%) count as active. 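Single biological run; no consistent viability z cut-off exists, so the class columns, not z-scores, define the calls.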

Test: 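Genes whose loss kills vorinostat-resistant colon cancer cells under vorinostat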 (primary screen)
Cells: human HCT116-VR colon cancer cells, selected for vorinostat resistance
Reagents: siRNA pool against human genes, 40 nM siRNA pool
Timing: vorinostat for 24 h, read-out about 72 h after transfection
Conditions: vorinostat at 2.5 µM final
Measured: 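Cell viability by CellTiter-Fluor and caspase 3/7 activity by luminescence, each scaled to mock wells per plate, duplicates averaged, then robust z-scored over all plates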
Scale: viability robust z-score: higher = more viable cells than screen typical; caspase robust z-score: higher = more caspase 3/7 activity than screen typical
Rule for the call: 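Hits are knock-downs in viability class RV1/RV2 or caspase class CA1/CA2, excluding ones that killed cells in the no-drug cell-count arm; hits then retested with single siRNAs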

| gene | viability hit class | caspase hit class | viability robust z-score | caspase robust z-score | activity call |
| --- | --- | --- | --- | --- | --- |
| DAO (GeneID 1610) | no change | no change | -0.31 | 2.33 | inactive |
| MBTD1 (GeneID 54799) | no change | no change | 1.27 | 0.02 | inactive |
| TENM3 (GeneID 55714) | no change | no change | 1.04 | -0.57 | inactive |
| TACO1 (GeneID 51204) | no change | no change | 0.44 | -1.02 | inactive |
| MGAT4C (GeneID 25834) | no change | no change | -1.6 | 2.43 | inactive |
| H2AC20 (GeneID 8338) | no change | no change | 0.6 | 0.24 | inactive |
| PARP1 (GeneID 142) | no change | no change | -0.38 | 1.52 | inactive |
| CCIN (GeneID 881) | no change | no change | -0.98 | 2.89 | inactive |
| PGRMC1 (GeneID 10857) | no change | no change | 0.01 | -0.07 | inactive |
| KCNJ11 (GeneID 3767) | no change | no change | -0.26 | 0.5 | inactive |
| MAPK8IP3 (GeneID 23162) | no change | no change | 2.3 | -0.49 | inactive |
| CASKIN2 (GeneID 57513) | no change | no change | 0.37 | 1.54 | inactive |
| CIRSR (GeneID 9541) | no change | no change | 0.12 | 1.02 | inactive |
| OR8U1 (GeneID 219417) | no change | no change | -0.25 | 0.22 | inactive |
| PLK2 (GeneID 10769) | no change | no change | 1.18 | -0.39 | inactive |
| APOD (GeneID 347) | no change | no change | 1.44 | -0.46 | inactive |
| CDCP2 (GeneID 200008) | no change | no change | -0.85 | 1.56 | inactive |
| RHBDF2 (GeneID 79651) | no change | no change | -1.3 | -0.97 | inactive |
| LRAT (GeneID 9227) | no change | no change | -0.3 | -0.75 | inactive |
| MKI67 (GeneID 4288) | no change | no change | -0.48 | -0.38 | inactive |
| ZNF784 (GeneID 147808) | no change | no change | -1.82 | 3.94 | inactive |
| ZFAND6 (GeneID 54469) | no change | no change | 0.59 | -0.51 | inactive |
| PRKAG3 (GeneID 53632) | no change | no change | -2.96 | -0.16 | inactive |

Taken from above.
DAO (GeneID 1610), caspase robust z-score = 2.33
H2AC20 (GeneID 8338), viability robust z-score: 0.6
